Data taken from US20150038682A1.
These are yes or no findings as the source states them, for the method shown. Some binding calls cover weakened binding; strength is not graded here.

The chains behind the UniProt entries cited, without tags or fusion partners. Residues count along the entry.
UniProt P43489, residues 29-277: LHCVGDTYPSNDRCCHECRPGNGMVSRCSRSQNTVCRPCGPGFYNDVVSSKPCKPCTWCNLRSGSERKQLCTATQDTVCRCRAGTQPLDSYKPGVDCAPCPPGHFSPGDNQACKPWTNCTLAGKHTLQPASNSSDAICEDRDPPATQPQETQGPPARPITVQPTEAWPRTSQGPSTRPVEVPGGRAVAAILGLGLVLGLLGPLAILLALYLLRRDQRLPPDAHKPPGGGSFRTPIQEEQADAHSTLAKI

Molecular target: human OX40 on cells (human) (UniProt P43489)
Experiment: flow cytometry using OX40-expressing cells

B1: HuOHX10-IgG1 (antibody, V domains shown)
VH: QVTLRESGPALVKPTQTLTLTCTFSGFSLSTSGVGVGWIRQPPGKALEWLAHIWWDDDKYYNTALKSGLTISKDTSKNQVVLTMTNMDPVDTATYYCARIDWDGIAYWGQGTLVTVSS
VL: EIVLTQSPATLSLSPGERATLSCRASSSVSYMHWYQQKPGQAPRPWIYATSNLASGIPARFSGSGSGTDYTLTISSLEPEDFAVYYCQQWSSNPWTFGGGTKVEIK
  binding: binds
